Non-standard residues stand in square brackets, D forms with d. Residues, ends and D or L forms follow the SMILES beside them. Aib = CC(C)(N)C(=O)O
Tested on: A. baumannii YQ4 transcriptome
Assay: RNA-seq analysis, differentially expressed genes
Type: cell-based, Acinetobacter baumannii
Details: 1/4 MIC (4 μg/ml), M9 minimal medium

Structure (SMILES): CC(=O)N[C@@H](C)C(=O)N[C@@H](CO)C(=O)NC(C)(C)C(=O)N[C@@H](CC(C)C)C(=O)N[C@@H](CCCNC(=N)N)C(=O)N[C@@H](CCCCN)C(=O)N[C@@H](CC(C)C)C(=O)NC(C)(C)C(=O)N[C@@H](CCCCN)C(=O)N[C@@H](CCCNC(=N)N)C(=O)N[C@@H](CC(C)C)C(=O)N[C@@H](CC(C)C)C(N)=O [COG1410, acetyl-AS-Aib-LRKL-Aib-KRLL-amide] (Ac-AS[Aib]LRKL[Aib]KRLL-NH2)
- significantly differentially expressed genes (at least 2-fold change): 92
